For assay [1], the target named is T1, PAT-4 (integrin linked kinase; ILK), full length (C. elegans) (UniProt Q9TZC4).
T1 sequence: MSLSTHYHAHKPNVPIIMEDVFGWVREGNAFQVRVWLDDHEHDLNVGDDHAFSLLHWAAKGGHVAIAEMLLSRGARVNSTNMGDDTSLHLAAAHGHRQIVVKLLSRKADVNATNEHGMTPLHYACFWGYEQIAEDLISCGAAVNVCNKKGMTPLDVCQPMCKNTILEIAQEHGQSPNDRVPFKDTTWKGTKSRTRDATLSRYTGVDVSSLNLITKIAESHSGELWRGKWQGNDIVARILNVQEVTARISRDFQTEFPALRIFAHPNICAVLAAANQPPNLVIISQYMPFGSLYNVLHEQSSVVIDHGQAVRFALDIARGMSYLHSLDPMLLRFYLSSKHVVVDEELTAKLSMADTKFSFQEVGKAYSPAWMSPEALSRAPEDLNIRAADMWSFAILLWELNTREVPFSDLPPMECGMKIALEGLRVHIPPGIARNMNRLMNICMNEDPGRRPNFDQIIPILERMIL
Put plainly: two-hybrid; yeast PJ69-4A; UNC-112 forms as prey (pGAD-C3 or pACT-Q), PAT-4 or UNC-112C as bait (pGBDU); read-out is growth on His- (2 mM 3-amino-1,2,4-triazole in the screen) and Ade- plates.

Assay [2] concerns the target T2, UNC-112 C-terminal half (397-720 aa) (C. elegans) (UniProt Q18685).
T2 sequence: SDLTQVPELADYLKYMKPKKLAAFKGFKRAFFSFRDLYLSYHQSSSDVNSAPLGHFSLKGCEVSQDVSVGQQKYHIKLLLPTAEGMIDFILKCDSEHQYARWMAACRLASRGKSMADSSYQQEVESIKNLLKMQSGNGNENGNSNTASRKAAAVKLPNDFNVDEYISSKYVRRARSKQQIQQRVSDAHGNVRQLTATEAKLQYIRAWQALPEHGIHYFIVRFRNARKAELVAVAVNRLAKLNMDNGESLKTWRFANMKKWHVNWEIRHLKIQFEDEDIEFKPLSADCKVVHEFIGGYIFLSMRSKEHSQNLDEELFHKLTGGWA
The assay is described as above.

Numbering of substitutions follows the chain as printed. Numbers in names are those of the source. No constants are given. Whether binding was seen depends on the method and setting. Some binding calls cover weakened binding; strength is not graded here.

B1: UNC-112 N-terminal half (1-396 aa) with E302G (domain or fragment, UniProt Q18685 1-396)
chain: MAHLVEGTSIIDGKWQLPILVTDLNIQRSISVLGNLNVGGLMLELVSECDVERDWSDHALWWPEKRRWLQHTRSTLDQNGITAETQLEFTPMHKEARIQLPDMQMIDARVDFSVNSFKATKKLCRDLGIRYSEELSLKRYIPPEDLRRGTSDADNMNGPLSMRPGEESVGPMTLRKAAPIFASQSNLDMRRRGQSPALSQSGHIFNAHEMGTLPRHGTLPRGVSPSPGAYNDTMRRTPIMPSISFSEGLENEQFDDALIHSPRLAPSRDTPVFRPQNYVEKAAINRGWLDSSRSLMEQGIFGGDIILLRFKFMNFFDLNPKYDPVRINQLYEQAKWSILLDEFDHTEEEATLFAALQLQATLQRDSPEPEENNKDDVDILLDELEQNLDAAALNRR
With B1, the binding entry was “no binding” in assay [1] and “binds” in assay [2].

B2: UNC-112 (kindlin), wild type (protein, UniProt Q18685 1-720)
chain: MAHLVEGTSIIDGKWQLPILVTDLNIQRSISVLGNLNVGGLMLELVSECDVERDWSDHALWWPEKRRWLQHTRSTLDQNGITAETQLEFTPMHKEARIQLPDMQMIDARVDFSVNSFKATKKLCRDLGIRYSEELSLKRYIPPEDLRRGTSDADNMNGPLSMRPGEESVGPMTLRKAAPIFASQSNLDMRRRGQSPALSQSGHIFNAHEMGTLPRHGTLPRGVSPSPGAYNDTMRRTPIMPSISFSEGLENEQFDDALIHSPRLAPSRDTPVFRPQNYVEKAAINRGWLDSSRSLMEQGIFEGDIILLRFKFMNFFDLNPKYDPVRINQLYEQAKWSILLDEFDHTEEEATLFAALQLQATLQRDSPEPEENNKDDVDILLDELEQNLDAAALNRRSDLTQVPELADYLKYMKPKKLAAFKGFKRAFFSFRDLYLSYHQSSSDVNSAPLGHFSLKGCEVSQDVSVGQQKYHIKLLLPTAEGMIDFILKCDSEHQYARWMAACRLASRGKSMADSSYQQEVESIKNLLKMQSGNGNENGNSNTASRKAAAVKLPNDFNVDEYISSKYVRRARSKQQIQQRVSDAHGNVRQLTATEAKLQYIRAWQALPEHGIHYFIVRFRNARKAELVAVAVNRLAKLNMDNGESLKTWRFANMKKWHVNWEIRHLKIQFEDEDIEFKPLSADCKVVHEFIGGYIFLSMRSKEHSQNLDEELFHKLTGGWA
As to B2, in assay [1], the binding result is on record as “binds”.

B3: UNC-112 E302G (full length) (protein, UniProt Q18685 1-720)
chain: B2 chain with E302G
Take B3: in assay [1], the binding result is listed as “no binding”.
